The results in this text go back to paper PMC4043117.

Amino acid sequences for entries named in this document (tags omitted). A change or cut given only in a name is not applied to a line headed by its entry.
UniProt O42995: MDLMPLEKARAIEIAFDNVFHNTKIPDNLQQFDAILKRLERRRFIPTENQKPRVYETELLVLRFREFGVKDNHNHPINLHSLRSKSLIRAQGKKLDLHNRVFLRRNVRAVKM
UniProt O94682: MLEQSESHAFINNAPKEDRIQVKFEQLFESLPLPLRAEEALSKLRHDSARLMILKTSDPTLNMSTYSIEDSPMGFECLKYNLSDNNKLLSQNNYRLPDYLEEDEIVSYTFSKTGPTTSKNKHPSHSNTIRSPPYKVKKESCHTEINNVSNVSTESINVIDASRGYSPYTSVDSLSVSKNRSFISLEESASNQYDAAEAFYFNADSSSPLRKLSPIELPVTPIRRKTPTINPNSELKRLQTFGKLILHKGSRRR

In one assay the target is T1, GST-Mis16 (S. pombe) (UniProt O94244).
T1 sequence: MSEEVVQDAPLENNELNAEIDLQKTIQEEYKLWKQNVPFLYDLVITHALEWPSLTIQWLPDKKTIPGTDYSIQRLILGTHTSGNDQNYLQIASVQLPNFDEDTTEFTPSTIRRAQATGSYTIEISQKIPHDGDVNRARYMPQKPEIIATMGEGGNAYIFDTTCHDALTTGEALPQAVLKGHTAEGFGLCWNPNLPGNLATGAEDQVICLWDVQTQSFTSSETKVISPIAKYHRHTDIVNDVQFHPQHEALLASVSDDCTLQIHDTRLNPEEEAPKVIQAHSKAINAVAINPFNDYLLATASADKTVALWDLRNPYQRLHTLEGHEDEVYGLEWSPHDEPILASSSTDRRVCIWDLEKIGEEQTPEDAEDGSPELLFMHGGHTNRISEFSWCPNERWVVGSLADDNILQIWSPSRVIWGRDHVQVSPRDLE
The assay can be described thus: pull-down; GST pulldown on glutathione agarose from lysates of E. coli co-expressing the two proteins; Coomassie-type stained gel.

The next assay concerns the target T2, GST-Mis18 (S. pombe) (UniProt Q9P802).
T2 sequence: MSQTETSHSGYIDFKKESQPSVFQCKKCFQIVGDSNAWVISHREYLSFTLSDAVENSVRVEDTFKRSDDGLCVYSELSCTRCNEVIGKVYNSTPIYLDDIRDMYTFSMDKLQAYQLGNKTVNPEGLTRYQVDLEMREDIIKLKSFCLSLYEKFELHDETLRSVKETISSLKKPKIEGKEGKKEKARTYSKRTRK
Described as above.

Another assay addresses Eic1-GFP (S. pombe) (UniProt O42995). Description: co-IP; 2 g pulverized S. pombe cells expressing the epitope-tagged proteins; anti-GFP, anti-Myc or anti-HA antibody on Protein G Dynabeads; western analysis.
Assay [1] has as its target Eic2-GFP (S. pombe), O94682. The description is as above. Particulars: remark: other sources report otherwise.
The next assay deals with Eic2-GFP (S. pombe) (UniProt O94682). Described as above.
The target of another assay is 6xHis-Eic1 (S. pombe). The assay can be described thus: pull-down; His pulldown on Ni-NTA agarose from lysates of E. coli co-expressing the two proteins; Coomassie-type stained gel.

These are yes or no findings as the source states them, for the method shown. Binding seen in cells or lysates may run through a third protein. For part of these data: Binding can be weak; no strength is given. Where a sequence is shown, tags or fusion partners need not be part of it.

For the molecule 6xHis-Eic1 (S. pombe), the binding entry in the assay with GST-Mis16 (S. pombe) and with GST-Mis18 (S. pombe) was “binds” in each case.

B1: Mis16-Myc (protein, UniProt O94244 1-430)
chain: MSEEVVQDAPLENNELNAEIDLQKTIQEEYKLWKQNVPFLYDLVITHALEWPSLTIQWLPDKKTIPGTDYSIQRLILGTHTSGNDQNYLQIASVQLPNFDEDTTEFTPSTIRRAQATGSYTIEISQKIPHDGDVNRARYMPQKPEIIATMGEGGNAYIFDTTCHDALTTGEALPQAVLKGHTAEGFGLCWNPNLPGNLATGAEDQVICLWDVQTQSFTSSETKVISPIAKYHRHTDIVNDVQFHPQHEALLASVSDDCTLQIHDTRLNPEEEAPKVIQAHSKAINAVAINPFNDYLLATASADKTVALWDLRNPYQRLHTLEGHEDEVYGLEWSPHDEPILASSSTDRRVCIWDLEKIGEEQTPEDAEDGSPELLFMHGGHTNRISEFSWCPNERWVVGSLADDNILQIWSPSRVIWGRDHVQVSPRDLE
On to B1, for which, in the assay with Eic1-GFP (S. pombe), the binding result is on record as “binds”.

B2: Mis16-Myc, O94244 1-430 (protein)
chain: MSEEVVQDAPLENNELNAEIDLQKTIQEEYKLWKQNVPFLYDLVITHALEWPSLTIQWLPDKKTIPGTDYSIQRLILGTHTSGNDQNYLQIASVQLPNFDEDTTEFTPSTIRRAQATGSYTIEISQKIPHDGDVNRARYMPQKPEIIATMGEGGNAYIFDTTCHDALTTGEALPQAVLKGHTAEGFGLCWNPNLPGNLATGAEDQVICLWDVQTQSFTSSETKVISPIAKYHRHTDIVNDVQFHPQHEALLASVSDDCTLQIHDTRLNPEEEAPKVIQAHSKAINAVAINPFNDYLLATASADKTVALWDLRNPYQRLHTLEGHEDEVYGLEWSPHDEPILASSSTDRRVCIWDLEKIGEEQTPEDAEDGSPELLFMHGGHTNRISEFSWCPNERWVVGSLADDNILQIWSPSRVIWGRDHVQVSPRDLE
On to B2, for which, in assay [1], the binding result is recorded as “no binding”.

B3: Fta7-Myc (protein, UniProt O74844 1-244)
chain: MEMKRRVRAVRRDQIQKRWRPLEDKQRQEIIIIFRTCSRLVLNTIKSETRKSLAEEWFMNILLKIEAPLRNLPVPRKRKESILFSQLLSSNMQLEQQLYSDLDHINVLQQELKVETARLENEQKSYEEMKQNMAINNSRLADLKSKLHPYLKKGLKISHDNFSDSNDFSFQKKLNTEDSNTSKTSTLDMYKEKLKPFTKTMQIHANKTVQLSQTIQKATLLLQRLNNTKNIGLNKSSKLKIKNI
Turning to B3, in the assay with Eic1-GFP (S. pombe), the binding entry is listed as “binds”.

B4: Mis18-Myc (protein, UniProt Q9P802 1-194)
chain: MSQTETSHSGYIDFKKESQPSVFQCKKCFQIVGDSNAWVISHREYLSFTLSDAVENSVRVEDTFKRSDDGLCVYSELSCTRCNEVIGKVYNSTPIYLDDIRDMYTFSMDKLQAYQLGNKTVNPEGLTRYQVDLEMREDIIKLKSFCLSLYEKFELHDETLRSVKETISSLKKPKIEGKEGKKEKARTYSKRTRK
Regarding B4, the binding result with Eic2-GFP (S. pombe) and with Eic1-GFP (S. pombe) was “binds” throughout.

B5: GST-Mis18 (protein, UniProt Q9P802 1-194)
chain: MSQTETSHSGYIDFKKESQPSVFQCKKCFQIVGDSNAWVISHREYLSFTLSDAVENSVRVEDTFKRSDDGLCVYSELSCTRCNEVIGKVYNSTPIYLDDIRDMYTFSMDKLQAYQLGNKTVNPEGLTRYQVDLEMREDIIKLKSFCLSLYEKFELHDETLRSVKETISSLKKPKIEGKEGKKEKARTYSKRTRK
In the case of B5, in the assay with 6xHis-Eic1 (S. pombe), the binding result is “binds”.

B6: Cnl2-Myc (protein, UniProt O13952 1-188)
chain: MNMEEQILNDYLLSQGRLQSIISLEQWRQLFPQRYREDPLIERLYEYCTQQRQKRLAKLRANIHLESQVIGKSRIDRMLATNVEKLQTVSHASTLHDVEEFYTSHSAKPLDISEINERLSEAVQSAYTKLNEEKERCTQLTLKMNSQIASLSDFQWSKEPNVDESIHLVESLIESLEKAAPSAIEELD
Turning to B6, the binding result in the assay with Eic1-GFP (S. pombe) is “binds”.
